The results in this text go back to the supplement of paper PMC10849652.

Chains of the proteins cited; added tags and fusions are not shown. Lines headed by an entry give the natural chain unless they say otherwise; changes in a name come on top.
UniProt Q06481, whole entry, looked up: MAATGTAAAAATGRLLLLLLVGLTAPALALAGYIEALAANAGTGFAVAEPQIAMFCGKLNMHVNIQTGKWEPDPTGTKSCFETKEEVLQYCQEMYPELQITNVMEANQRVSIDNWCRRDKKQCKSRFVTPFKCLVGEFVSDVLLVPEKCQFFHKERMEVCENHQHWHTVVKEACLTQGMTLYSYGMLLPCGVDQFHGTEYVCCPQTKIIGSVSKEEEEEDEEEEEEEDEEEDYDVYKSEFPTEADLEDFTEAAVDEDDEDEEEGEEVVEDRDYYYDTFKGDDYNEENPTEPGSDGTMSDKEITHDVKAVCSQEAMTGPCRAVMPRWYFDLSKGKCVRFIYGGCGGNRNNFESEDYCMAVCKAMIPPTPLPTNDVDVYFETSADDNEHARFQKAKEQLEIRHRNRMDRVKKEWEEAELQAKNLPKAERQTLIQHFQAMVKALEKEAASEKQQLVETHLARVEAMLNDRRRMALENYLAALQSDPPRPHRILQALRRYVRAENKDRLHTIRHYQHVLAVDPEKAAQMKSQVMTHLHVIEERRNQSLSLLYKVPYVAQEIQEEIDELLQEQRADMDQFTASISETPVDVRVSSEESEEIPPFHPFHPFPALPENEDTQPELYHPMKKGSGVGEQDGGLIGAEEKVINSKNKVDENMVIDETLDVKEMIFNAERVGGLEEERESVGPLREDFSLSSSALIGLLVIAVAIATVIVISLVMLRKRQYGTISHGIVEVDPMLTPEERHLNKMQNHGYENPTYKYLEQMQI
UniProt Q9Y587: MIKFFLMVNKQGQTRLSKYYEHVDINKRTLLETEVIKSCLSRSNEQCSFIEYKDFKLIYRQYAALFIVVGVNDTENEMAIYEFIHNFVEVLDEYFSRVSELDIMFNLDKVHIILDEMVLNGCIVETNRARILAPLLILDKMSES
UniProt Q15041, whole entry, looked up: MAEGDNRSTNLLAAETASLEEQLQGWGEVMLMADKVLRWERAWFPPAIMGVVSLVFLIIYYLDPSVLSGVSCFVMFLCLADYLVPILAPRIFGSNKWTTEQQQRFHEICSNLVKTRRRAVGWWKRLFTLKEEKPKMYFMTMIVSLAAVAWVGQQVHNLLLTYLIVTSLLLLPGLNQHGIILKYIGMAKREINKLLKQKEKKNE
UniProt Q9UKG1: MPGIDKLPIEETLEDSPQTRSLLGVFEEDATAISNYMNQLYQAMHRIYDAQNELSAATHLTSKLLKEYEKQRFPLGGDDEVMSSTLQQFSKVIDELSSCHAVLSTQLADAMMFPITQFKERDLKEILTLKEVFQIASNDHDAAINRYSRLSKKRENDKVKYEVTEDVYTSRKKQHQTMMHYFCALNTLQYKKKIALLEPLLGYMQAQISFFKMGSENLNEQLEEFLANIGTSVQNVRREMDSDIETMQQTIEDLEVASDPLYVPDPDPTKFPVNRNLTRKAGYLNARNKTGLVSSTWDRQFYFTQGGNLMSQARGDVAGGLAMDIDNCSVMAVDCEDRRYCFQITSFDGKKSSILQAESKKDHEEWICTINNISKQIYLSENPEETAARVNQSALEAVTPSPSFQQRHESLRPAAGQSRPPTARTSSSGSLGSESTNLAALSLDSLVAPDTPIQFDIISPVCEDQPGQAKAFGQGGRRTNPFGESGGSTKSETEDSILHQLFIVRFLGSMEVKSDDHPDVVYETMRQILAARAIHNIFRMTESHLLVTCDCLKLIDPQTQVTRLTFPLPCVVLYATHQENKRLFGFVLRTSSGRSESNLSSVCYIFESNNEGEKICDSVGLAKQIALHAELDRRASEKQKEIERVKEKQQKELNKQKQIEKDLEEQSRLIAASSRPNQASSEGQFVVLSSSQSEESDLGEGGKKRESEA
UniProt Q9Y6D6: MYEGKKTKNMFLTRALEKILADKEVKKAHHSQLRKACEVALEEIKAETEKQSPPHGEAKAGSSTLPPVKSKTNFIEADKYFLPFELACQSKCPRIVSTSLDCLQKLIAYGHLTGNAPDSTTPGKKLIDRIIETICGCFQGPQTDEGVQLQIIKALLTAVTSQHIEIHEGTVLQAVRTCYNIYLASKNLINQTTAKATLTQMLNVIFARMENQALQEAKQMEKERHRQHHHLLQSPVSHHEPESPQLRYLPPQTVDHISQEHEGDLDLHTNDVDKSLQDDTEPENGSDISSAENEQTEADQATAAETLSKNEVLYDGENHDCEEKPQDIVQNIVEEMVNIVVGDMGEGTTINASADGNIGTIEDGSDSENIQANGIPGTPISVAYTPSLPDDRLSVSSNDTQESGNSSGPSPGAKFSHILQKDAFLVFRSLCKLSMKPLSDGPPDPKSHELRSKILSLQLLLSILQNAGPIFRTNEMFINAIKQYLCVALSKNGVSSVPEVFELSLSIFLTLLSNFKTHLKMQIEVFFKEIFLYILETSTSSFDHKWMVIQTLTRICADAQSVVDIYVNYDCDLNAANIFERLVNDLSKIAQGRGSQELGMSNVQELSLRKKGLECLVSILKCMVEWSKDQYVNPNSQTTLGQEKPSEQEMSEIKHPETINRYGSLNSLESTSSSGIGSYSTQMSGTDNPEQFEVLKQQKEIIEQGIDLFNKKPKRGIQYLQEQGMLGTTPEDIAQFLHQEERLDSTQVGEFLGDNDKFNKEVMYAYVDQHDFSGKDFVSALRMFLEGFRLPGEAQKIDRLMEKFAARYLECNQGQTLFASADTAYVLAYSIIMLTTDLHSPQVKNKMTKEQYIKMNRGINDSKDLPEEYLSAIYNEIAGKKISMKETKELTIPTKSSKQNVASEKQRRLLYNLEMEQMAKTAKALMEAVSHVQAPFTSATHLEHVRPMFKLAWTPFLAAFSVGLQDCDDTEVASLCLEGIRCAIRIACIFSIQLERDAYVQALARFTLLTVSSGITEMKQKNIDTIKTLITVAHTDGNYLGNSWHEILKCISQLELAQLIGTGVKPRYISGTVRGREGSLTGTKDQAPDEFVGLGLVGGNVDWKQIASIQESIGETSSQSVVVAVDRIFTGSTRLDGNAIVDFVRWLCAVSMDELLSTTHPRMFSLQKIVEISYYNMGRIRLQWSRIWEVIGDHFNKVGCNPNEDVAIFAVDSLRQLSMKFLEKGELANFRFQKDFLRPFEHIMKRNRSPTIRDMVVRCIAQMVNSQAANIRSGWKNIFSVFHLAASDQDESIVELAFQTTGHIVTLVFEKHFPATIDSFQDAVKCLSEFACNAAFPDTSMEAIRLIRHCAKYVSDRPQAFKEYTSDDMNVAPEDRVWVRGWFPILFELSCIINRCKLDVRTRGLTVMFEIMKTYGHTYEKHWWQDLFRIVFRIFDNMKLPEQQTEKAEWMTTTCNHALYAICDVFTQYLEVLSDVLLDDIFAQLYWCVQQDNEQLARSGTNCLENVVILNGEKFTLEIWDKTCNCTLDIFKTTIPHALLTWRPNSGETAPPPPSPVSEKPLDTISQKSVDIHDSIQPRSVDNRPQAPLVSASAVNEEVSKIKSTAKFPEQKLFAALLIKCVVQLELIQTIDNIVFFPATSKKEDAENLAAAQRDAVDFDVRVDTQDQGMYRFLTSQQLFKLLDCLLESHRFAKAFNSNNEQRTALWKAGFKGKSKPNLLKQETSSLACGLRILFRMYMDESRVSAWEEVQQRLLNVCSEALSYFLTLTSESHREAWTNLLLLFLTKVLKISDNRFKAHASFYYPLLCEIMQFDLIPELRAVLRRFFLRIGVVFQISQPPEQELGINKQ
UniProt O14727: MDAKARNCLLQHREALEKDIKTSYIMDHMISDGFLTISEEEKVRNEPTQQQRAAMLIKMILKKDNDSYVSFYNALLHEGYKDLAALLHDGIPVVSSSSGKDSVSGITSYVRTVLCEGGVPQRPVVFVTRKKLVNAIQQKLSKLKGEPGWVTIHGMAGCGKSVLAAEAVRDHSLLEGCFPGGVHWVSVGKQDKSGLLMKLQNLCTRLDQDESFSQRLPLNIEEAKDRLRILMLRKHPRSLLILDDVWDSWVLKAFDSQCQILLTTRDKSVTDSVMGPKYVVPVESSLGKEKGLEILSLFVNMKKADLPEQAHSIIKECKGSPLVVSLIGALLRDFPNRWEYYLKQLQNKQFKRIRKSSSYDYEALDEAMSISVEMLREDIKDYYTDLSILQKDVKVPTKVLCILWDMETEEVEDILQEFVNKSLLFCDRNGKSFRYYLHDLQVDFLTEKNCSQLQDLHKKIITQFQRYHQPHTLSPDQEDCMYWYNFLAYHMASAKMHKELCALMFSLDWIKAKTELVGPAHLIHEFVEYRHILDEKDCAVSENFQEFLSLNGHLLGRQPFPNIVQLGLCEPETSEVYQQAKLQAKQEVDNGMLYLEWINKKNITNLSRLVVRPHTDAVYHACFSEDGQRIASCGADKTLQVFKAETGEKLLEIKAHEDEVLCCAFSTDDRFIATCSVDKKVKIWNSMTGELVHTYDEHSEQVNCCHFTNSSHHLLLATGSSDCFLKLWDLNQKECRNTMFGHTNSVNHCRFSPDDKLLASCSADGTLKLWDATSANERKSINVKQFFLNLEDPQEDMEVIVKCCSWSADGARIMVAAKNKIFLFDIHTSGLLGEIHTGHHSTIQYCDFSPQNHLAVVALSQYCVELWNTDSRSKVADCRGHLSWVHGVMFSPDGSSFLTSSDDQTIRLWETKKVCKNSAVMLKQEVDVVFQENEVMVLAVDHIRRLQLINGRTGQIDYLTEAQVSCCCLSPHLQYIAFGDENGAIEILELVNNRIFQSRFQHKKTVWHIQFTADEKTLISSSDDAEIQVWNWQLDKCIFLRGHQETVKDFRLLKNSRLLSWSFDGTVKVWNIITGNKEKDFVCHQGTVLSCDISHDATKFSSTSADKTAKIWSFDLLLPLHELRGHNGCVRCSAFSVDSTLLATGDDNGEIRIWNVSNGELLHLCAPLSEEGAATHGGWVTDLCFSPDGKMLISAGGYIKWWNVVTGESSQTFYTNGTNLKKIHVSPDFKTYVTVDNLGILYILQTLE
UniProt Q9HDC9: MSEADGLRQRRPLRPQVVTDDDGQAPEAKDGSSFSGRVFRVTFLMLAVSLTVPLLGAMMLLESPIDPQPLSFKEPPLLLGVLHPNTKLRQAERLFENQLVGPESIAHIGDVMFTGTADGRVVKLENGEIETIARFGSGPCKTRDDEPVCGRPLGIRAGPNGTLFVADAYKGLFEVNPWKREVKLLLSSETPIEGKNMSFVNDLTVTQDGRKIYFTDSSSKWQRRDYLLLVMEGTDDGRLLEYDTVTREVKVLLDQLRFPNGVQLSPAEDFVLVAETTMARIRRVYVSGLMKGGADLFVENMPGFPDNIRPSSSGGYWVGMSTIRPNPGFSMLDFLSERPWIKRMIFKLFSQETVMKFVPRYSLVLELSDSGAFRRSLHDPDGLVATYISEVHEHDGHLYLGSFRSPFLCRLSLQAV
UniProt Q9H0R1: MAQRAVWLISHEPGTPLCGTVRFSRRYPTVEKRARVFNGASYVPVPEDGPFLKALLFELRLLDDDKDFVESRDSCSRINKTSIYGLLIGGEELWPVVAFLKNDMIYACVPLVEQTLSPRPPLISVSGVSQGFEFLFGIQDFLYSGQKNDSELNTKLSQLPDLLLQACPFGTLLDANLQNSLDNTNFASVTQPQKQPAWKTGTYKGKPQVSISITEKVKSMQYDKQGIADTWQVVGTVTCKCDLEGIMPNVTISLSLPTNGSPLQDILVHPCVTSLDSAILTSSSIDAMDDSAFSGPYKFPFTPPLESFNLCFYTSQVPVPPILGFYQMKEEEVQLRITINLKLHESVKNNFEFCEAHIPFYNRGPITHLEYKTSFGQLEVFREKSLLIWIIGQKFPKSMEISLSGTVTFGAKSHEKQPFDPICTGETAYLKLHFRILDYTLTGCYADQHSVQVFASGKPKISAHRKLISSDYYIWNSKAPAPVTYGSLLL
UniProt Q9NRW3: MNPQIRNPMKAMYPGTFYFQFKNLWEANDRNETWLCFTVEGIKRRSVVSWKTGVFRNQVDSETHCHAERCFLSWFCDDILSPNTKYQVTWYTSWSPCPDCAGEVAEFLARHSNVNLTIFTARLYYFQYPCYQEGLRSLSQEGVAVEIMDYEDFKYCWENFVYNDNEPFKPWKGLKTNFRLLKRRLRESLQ
UniProt P02654: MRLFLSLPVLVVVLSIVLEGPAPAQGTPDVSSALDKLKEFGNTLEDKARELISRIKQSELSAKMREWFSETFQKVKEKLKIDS
UniProt P53367: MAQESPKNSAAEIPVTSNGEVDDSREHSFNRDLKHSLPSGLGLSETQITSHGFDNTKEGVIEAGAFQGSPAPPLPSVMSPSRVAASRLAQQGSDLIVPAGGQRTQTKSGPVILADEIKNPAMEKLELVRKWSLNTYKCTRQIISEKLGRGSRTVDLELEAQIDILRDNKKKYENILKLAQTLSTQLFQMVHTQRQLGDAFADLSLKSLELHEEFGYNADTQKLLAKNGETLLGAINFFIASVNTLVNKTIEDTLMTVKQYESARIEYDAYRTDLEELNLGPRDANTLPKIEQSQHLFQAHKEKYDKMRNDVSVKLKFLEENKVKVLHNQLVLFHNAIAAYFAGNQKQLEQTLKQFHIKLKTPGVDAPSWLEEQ

The list shows a part of the results.

Compound in this assay: NC1(c2ccc(-c3nc4ccn5c(=O)[nH]nc5c4cc3-c3ccccc3)cc2)CCC1
As to the kind of experiment: log2 fold change, soluble protein after heating vs DMSO (PISA); higher = thermal stabilisation; K562 lysate, 10 uM; active = over 0.2 and 3.5 SD of the protein, either way, in both replicates (recomputed). The procedure, abridged:
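Dounce homogenisation of K562 pellets in PBS pH 7.4 with 1 mM MgCl2 produced a crude extract, used at 1 mg/mL protein. Exposure to 10 μM compound lasted 30 min, and aliquots were then heated for 3 min across 48°C-58°C, pooled and brought to 0.5% NP-40 at 4°C. The supernatant after 21,000xg for 90 min was quantified by TMTpro 16plex LC-MS/MS with channel sums equalised. Duplicate values are given as log-two fold change in thermal stability relative to solvent controls.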
For the target APLP2 (UniProt Q06481), the log2 fold change was inactive: 0.013.
As for AP4S1 (UniProt Q9Y587), the log2 fold change is inactive: 0.065.
As for ARL6IP1 (UniProt Q15041), the log2 fold change is inactive: 0.021.
To ARHGAP5 (UniProt Q13017) belongs inactive: 0.029.
To APPL1 (UniProt Q9UKG1) belongs inactive: 0.015; to ARID1B isoform 3 (UniProt Q8NFD5), inactive: -0.007; to ARHGEF11 isoform 2 (UniProt O15085), inactive: 0.03.
Turning to ARFGEF1 (UniProt Q9Y6D6), the log2 fold change was inactive: -0.02.
To ARID4B (UniProt Q4LE39) belongs inactive: -0.036; to ARAF (UniProt P10398), inactive: -0.012; to APAF1 (UniProt O14727), inactive: 0.026.
Then ARFGAP3 (UniProt Q9NP61), with inactive: 0.028.
Then ARHGAP21 (UniProt Q5T5U3), with inactive: -0.021; and APMAP (UniProt Q9HDC9), with inactive: -0.003.
Consider AP5M1 (UniProt Q9H0R1), for which the log2 fold change was inactive: 0.092.
Then APOBEC3C (UniProt Q9NRW3), with inactive: 0.028.
To APOC1 (UniProt P02654) belongs inactive: -0.077; to ARFIP1 (UniProt P53367), inactive: 0.045.
